Measurements as given in patent US12342819B2, “Elasnin, a bacteriostatic agent that has potent antibiofilm activities against both mono- and multi-species biofilm” (The Hong Kong University of Science and Technology, priority 2019, dated 2025).
At least one structure is not confirmed: it was looked up by name or label, or the drawing left a doubt. Some entries share one result that the patent states for a list of compounds.

Tests used:
[1] = cited from earlier work
[2] = system: MRSA ATCC 43300; experiment: Minimum inhibitory concentration (MIC), CLSI M100; assay type: cell-based, Methicillin-resistant Staphylococcus aureus; settings: planktonic cells, 24 hours incubation
Protocol: Minimum inhibitory concentrations (MICs) and minimum bactericidal concentrations (MBCs) were determined with MRSA ATCC 43300 and E. coli ATCC 25922, according to the Clinical and Laboratory Standards Institute guideline CLSI M100 (2018). Approximately 10^5 CFU/ml overnight culture of the bacteria strains were inoculated into MHB and treated with series concentrations of Elasnin (or crude extracts and antibiotics). […] MBCs were measured following the MIC assay by plating 1 ml suitable diluted culture broth from each well on Mueller Hinton Agar (MHA) plate. The MBCs were defined as lowest concentration at which antimicrobial agent caused >99.9% reduction of cells. Each assay was done in duplicates and repeated 3 times.

SMILES: CCCCCC(=O)C(CCCC)c1oc(=O)c(CCCC)c(O)c1CCCC (centres unmarked) [elasnin]
- toxicity [1]: low toxicity
- MIC [2]: 0.5 to 2 µg/mL
